In patent publication US6426229B1, “Chelating agent and detergent comprising the same” (Mitsubishi Rayon Co., Ltd., priority 1995, dated 2002):

System: activated sludge
Assay: Biodegradability test, amended SCAS method (302A Modified SCAS Test, OECD guideline)
Details: supernatant liquid

O=C([O-])CN(CCN(CC(=O)[O-])CC(=O)[O-])CC(=O)[O-].[Na+].[Na+].[Na+].[Na+] [Tetrasodium ethylenediaminetetraacetate]
Retention rate by HPLC (%): 100% | Retention rate by TOC (%): 100%
